Experimental data published in publication doi:10.1101/2023.01.24.525215.
For at least one entry, the source does not settle the construct or the ends of the probe. Weaker means in comparison with the reference protein, sequence or condition of that experiment. Protein sequences can lack the tags named with them.

Target: T1, WRKY53 (Arabidopsis thaliana) (UniProt Q9SUP6)
T1 sequence (looked up): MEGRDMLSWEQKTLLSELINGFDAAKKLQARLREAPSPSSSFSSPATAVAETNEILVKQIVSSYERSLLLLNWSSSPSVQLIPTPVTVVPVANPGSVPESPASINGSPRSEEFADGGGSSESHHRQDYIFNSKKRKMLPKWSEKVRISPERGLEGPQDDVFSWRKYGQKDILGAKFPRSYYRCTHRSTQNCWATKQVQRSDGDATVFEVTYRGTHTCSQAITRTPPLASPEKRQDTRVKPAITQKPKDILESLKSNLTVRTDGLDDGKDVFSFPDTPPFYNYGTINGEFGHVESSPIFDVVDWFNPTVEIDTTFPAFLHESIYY
Assay: EMSA
Details: with CAM5; residues 1-324

Sequence | binding result
ATAATTATTCTTGACTGATGTATGCATATA (double strand) [PDF1.2 w-box probe] | binds more weakly
TTTATTTGAAAATTGACTGTAGATATAAAC (double strand) [PR1 w-box probe] | binds more weakly
